Earlier results in patent publication US10792305B2, “Therapeutic immune modulation using noble gas compositions” (NOBILIS THERAPEUTICS, INC., priority 2015, dated 2020).
For at least one compound, name, drawing or mass did not settle the structure.

Tested on: behavioral symptoms of children with ASD
Conditions: cited from earlier work

CCc1ccc(CCOc2ccc(CC3SC(=O)NC3=O)cc2)nc1 (centres unmarked) [pioglitazone]
clinical improvement (30 or 60 mg per day p.o. for 3-4 months, 25 children): apparent clinical improvement
Aberrant Behavior Checklist subcategories (irritability, lethargy, stereotypy, hyperactivity) (30 or 60 mg per day p.o., baseline versus 3-4 months): significant decrease in 4 out of 5 subcategories
